Data as given in publication PMC10985002.
Results are given in words; binding and its absence hold for the method and conditions named. In cells and extracts the contact can be indirect.

Columns and labels:
[1] = biological target: AIP4 (endogenous, 786-O cells) (human (endogenous in 786-O)), Q96J02; assay: co-IP; endogenous proteins in 786-O cell lysates; immunoprecipitation with anti-TRIB3 or anti-PLIN2, immunoblot; PLIN2 with TEB4 also in cells in which TRIB3 was or was not silenced (shRNA); conditions: remark: other sources report otherwise
[2] = biological target: T1, UBR1 (endogenous, 786-O cells) (human (endogenous in 786-O)), Q8IWV7; assay: as above; conditions: remark: other sources report otherwise
T1 chain: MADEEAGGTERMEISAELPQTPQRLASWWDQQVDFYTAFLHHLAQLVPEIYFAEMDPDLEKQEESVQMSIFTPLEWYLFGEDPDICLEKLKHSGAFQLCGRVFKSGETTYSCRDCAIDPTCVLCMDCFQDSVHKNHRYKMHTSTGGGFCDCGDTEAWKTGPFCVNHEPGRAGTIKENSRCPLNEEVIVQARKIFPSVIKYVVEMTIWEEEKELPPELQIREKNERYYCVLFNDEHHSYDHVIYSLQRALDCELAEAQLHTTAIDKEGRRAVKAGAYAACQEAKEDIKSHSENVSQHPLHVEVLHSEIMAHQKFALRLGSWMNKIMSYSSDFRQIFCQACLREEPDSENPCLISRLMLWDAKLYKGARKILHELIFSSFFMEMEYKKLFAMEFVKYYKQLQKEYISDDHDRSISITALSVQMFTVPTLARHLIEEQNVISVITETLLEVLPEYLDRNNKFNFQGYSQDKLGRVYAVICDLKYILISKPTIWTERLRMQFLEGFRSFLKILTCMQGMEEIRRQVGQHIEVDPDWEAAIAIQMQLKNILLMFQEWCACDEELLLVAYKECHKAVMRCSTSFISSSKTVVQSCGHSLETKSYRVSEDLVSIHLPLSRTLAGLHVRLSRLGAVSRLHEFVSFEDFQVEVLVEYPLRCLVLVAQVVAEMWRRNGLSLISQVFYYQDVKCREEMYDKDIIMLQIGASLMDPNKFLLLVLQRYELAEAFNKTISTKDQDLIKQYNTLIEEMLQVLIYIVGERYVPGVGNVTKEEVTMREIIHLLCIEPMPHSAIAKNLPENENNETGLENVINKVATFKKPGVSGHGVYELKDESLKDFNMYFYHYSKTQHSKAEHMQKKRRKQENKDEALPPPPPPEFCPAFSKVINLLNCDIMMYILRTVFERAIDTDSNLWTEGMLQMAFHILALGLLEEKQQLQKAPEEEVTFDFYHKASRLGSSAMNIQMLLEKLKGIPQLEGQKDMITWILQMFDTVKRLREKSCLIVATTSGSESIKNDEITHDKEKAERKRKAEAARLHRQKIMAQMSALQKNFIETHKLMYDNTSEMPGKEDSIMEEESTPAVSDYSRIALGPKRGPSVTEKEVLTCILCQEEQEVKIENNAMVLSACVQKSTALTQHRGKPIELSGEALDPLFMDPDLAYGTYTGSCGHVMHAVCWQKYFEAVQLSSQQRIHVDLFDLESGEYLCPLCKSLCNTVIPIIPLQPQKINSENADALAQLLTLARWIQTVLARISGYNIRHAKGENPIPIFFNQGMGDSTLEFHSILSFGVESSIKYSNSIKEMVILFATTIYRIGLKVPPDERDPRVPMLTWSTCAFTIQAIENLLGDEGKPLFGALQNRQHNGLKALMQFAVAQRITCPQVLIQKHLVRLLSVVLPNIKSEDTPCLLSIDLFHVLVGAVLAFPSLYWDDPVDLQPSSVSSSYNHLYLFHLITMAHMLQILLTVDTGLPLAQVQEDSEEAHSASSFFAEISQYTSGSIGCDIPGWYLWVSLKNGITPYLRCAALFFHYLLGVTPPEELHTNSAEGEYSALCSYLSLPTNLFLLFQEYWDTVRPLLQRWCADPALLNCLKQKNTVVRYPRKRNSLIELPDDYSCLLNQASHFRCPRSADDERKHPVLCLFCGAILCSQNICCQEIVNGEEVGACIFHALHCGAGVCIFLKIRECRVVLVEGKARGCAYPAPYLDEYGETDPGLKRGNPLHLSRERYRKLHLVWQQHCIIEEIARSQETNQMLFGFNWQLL

B1: PLIN2 (endogenous, 786-O cells), Q99541 1-437 (protein)
chain: MASVAVDPQPSVVTRVVNLPLVSSTYDLMSSAYLSTKDQYPYLKSVCEMAENGVKTITSVAMTSALPIIQKLEPQIAVANTYACKGLDRIEERLPILNQPSTQIVANAKGAVTGAKDAVTTTVTGAKDSVASTITGVMDKTKGAVTGSVEKTKSVVSGSINTVLGSRMMQLVSSGVENALTKSELLVEQYLPLTEEELEKEAKKVEGFDLVQKPSYYVRLGSLSTKLHSRAYQQALSRVKEAKQKSQQTISQLHSTVHLIEFARKNVYSANQKIQDAQDKLYLSWVEWKRSIGYDDTDESHCAEHIESRTLAIARNLTQQLQTTCHTLLSNIQGVPQNIQDQAKHMGVMAGDIYSVFRNAASFKEVSDSLLTSSKGQLQKMKESLDDVMDYLVNNTPLNWLVGPFYPQLTESQNAQDQGAEMDKSSQETQRSEHKTH
[1]
  binding: no binding
[2]
  binding: no binding
